Measurements from patent US6528630B1 (priority 1997, dated 2003).
At least one structure is not confirmed: it was looked up by name or label, or the drawing left a doubt.

Legend:
α1B-1α2bβ1-2 = biological target: T1, α1B-1α2bβ1-2 (Homo sapiens, UniProt Q00975); assay type: cell-based; settings: 5 μM; n=3
T1 construct: A full-length α1B DNA clone was constructed by ligating portions of the partial cDNA clones; expressed in transfected cells; host or cells: HEK293 (transient)

[1] = tested on: human neuronal calcium channel α2 and β1 subunits; test: Two-electrode voltage clamp of Xenopus oöcytes injected with α2 and β1 transcripts; settings: nifedipine 5 to 10 μM, holding potential −50 mV

With `COC(=O)C1=C(C)NC(C)=C(C(=O)OC)C1c1ccccc1[N+](=O)[O-]` [nifedipine] the “effect on channel activity” value (α1B-1α2bβ1-2) was “no discernable effect” and the “sensitivity of inward barium currents” value [1] was “insensitive”.
